In paper PMC4745783, “The HGF inhibitory peptide HGP-1 displays promising in vitro and in vivo efficacy for targeted cancer therapy” (Oncotarget, 2015) one finds binding data, which are given here for one substance.

No constants are given. Whether binding was seen depends on the method and setting. A result given as binding can be weak or reduced; the word gives no strength.

The assay addresses T1, HGF binding peptide-1 displayed on the surface of bacteria.
T1 sequence: HRGLKWEIVPWSGCG
The assay can be described thus: flow cytometry on cells; competition: 10^7 bacteria incubated with 7 nM HGF and the same molarity of EGF; binding of EGF to the displayed peptide read from the loss of HGF signal; only the binder purified. (A flow cytometer gives signals particle by particle.)

In the case of Recombinant human EGF (ligand), the binding entry is reported as “binds”.
